Results are given in words; binding and its absence hold for the method and conditions named. In cells and extracts the contact can be indirect. These calls come from enrichment with a bait or labelling near it, and not all partners need be listed.

The chains behind the UniProt entries cited, without tags or fusion partners. Residues count along the entry.
UniProt Q3UU41, residues 29-150: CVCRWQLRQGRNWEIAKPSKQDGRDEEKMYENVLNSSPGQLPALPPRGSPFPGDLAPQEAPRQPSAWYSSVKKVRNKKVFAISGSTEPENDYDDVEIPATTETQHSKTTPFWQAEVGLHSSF
UniProt Q9QUK6, residues 26-835: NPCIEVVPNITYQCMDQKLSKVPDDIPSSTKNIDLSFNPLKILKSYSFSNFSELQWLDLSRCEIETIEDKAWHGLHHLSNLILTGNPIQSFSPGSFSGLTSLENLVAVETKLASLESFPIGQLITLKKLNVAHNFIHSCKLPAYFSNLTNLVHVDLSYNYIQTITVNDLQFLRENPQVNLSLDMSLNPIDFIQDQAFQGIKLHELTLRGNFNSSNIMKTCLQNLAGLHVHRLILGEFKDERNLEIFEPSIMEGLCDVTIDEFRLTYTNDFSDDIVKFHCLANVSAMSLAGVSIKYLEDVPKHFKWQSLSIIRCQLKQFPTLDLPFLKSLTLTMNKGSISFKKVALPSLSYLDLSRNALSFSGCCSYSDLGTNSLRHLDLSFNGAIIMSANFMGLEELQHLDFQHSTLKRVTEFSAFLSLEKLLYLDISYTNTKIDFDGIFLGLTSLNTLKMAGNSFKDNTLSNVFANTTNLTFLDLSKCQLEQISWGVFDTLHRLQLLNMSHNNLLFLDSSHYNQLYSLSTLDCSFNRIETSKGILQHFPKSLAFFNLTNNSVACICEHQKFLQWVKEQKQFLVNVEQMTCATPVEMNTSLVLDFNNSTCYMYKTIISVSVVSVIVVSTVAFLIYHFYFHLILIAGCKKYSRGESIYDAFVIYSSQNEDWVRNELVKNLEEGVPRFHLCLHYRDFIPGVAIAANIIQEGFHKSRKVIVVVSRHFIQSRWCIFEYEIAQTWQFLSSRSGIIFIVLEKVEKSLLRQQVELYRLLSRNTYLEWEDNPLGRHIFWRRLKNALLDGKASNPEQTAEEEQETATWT
UniProt P25911: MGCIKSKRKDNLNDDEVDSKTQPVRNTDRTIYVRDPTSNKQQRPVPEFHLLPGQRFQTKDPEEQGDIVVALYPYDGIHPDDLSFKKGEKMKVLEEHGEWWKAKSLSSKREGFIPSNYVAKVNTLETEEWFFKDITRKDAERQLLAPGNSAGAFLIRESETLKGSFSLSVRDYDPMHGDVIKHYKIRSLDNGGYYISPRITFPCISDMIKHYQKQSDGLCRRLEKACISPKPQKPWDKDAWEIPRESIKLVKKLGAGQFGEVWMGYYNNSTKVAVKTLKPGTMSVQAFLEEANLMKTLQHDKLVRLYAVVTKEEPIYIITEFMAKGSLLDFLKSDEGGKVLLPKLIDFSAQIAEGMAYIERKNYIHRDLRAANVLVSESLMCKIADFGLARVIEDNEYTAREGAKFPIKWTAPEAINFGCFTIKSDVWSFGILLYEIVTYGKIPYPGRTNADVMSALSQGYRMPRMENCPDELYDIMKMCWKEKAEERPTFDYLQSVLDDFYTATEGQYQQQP

For this assay, the target named is GST-SCIMP-T1 (entire intracellular region of murine SCIMP, amino acids 29-150) (mouse) (UniProt Q3UU41). Briefly: affinity purification with mass spectrometry; GST-SCIMP-T1 on GSH-Sepharose; extracts of LPS-activated RAW264.7 cells; protease cleavage elution, SDS-PAGE, excised bands by LC/MS/MS; GST control; only the target purified.
As for “Grb2 adaptor protein, endogenous in mouse macrophages (from UniProt Q60631 1-217)”, the binding entry is “binds”. Turning to “endogenous TLR4 of mouse macrophages (from UniProt Q9QUK6 26-835) (receptor)”, the binding result is on record as “binds”. For “Lyn tyrosine kinase, endogenous in mouse macrophages (from UniProt P25911 1-512) (enzyme)” the value was “binds”.

(Values after PMC5253658.)
